Laboratory results: patent CN112538116A
No constants are given. Whether binding was seen depends on the method and setting. Some results given as binding are weak or reduced against the parent protein; the word gives no strength.

Sequences of proteins named here, by UniProt entry; tags and fusion partners are left off. A change or cut given only in a name is not applied to a line headed by its entry. Residues count along the entry.
UniProt Q07011: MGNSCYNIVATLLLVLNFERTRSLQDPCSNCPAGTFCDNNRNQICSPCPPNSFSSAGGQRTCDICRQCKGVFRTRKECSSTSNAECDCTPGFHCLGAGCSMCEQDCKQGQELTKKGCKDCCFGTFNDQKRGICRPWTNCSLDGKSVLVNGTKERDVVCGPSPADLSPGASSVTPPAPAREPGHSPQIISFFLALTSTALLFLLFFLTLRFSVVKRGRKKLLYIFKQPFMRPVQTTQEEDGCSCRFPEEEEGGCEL
人4-1BB on Jurkat-4-1BB细胞: residues 24-255 of Q07011
带组氨酸标签的4-1BB抗原: residues 24-186 of Q07011

Tests used:
带组氨酸标签的4-1BB抗原 = 带组氨酸标签的4-1BB抗原 (UniProt Q07011); test: Biacore, antibody captured by anti-human IgG on CM5, His-tagged 4-1BB as analyte
4-1BB-ECD-hFc (human) = 4-1BB-ECD-hFc (human) (UniProt Q07011); test: ELISA, method as in Example 1
[1] = biological target: 人4-1BB on Jurkat-4-1BB细胞 (human) (UniProt Q07011); test: FACS on Jurkat-4-1BB cells

binding (带组氨酸标签的4-1BB抗原)	binding (4-1BB-ECD-hFc (human))	binding [1]	Binder
binds	–	–	抗人4-1BB人源化抗体8H8 (antibody, V domains shown) VH: QIQLVQSGSELKKPGASVKVSCKASGYTFSNYGMNWVRQAPGQGLEWMGWINTHTGEPTYADEFKGRFVFSLDTSVSTAYLQISSLKAEDTAVYYCARVLTMVMDYWGQGTLVTVSS VL: DIVLTQSPDSLAVSLGERATINCRASEIIDGSGNSFVHWYQQKPGQPPKLLIYRTSTLESGVPDRFSGSGSRTDFTLTISSLQAEDVAVYYCLQTVEDPWTFGGGTKVEIK
binds	–	–	抗人4-1BB人源化抗体10B2 (antibody, V domains shown) VH: QVQLVESGGGVVQPGRSLRLSCAASGFTFSTFGLHWVRQAPGKGLEWVAYISSDSNTIYYADTMKGRFTISRDNSKNTLYLQMNSLRAEDTAVYYCTRGDPAYYGYGGRFVYALDFWGQGTLVTVSS VL: DVVVTQTPLSLSVTPGQPASISCRSSQSLTNSYGHTYLSWYLQKPGQSPQLLIYGISIRFSGVPDRFSGSGSGTDFTLKISRVEAEDVGVYYCLQGTHQPWTFGGGTKVEIK
binds	binds	binds	抗人4-1BB人源化抗体2F10 (antibody, V domains shown) VH: EVQLVQSGAEVKKPGATVKISCKVSGFNIEDTYLNWVQQAPGKGLEWIGKIYPANGDTKYDPKFQGRATITADTSTDTAYMELSSLRSEDTAVYYCTRGYGSNFFDYWGQGTLVTVSS VL: EIVLTQSPATLSLSPGERATLSCRASESVDSYDNSFMHWYQQKPGQAPRLLIYRASNLESGIPARFSGSGSRTDFTLTISSLEPEDFAVYYCQQSNEDPYTFGQGTKLEIK
binds	–	–	抗人4-1BB人源化抗体1A2 (antibody, V domains shown) VH: EAQLVQSGAEVKKPGATVKISCKVSGFNIKDTYMNWVQQAPGKGLEWIGRIAPANGNTKYAPQFQDRATITADTSTDTAYMELSSLRSEDTAVYYCARSYGSNFFDYWGQGTLVTVSS VL: EIVLTQSPATLSLSPGERATLSCKSSQSVDNYDNSFMHWYQQKPGQAPRLLIYRASNLETGIPARFSGSGSRTDFTLTISSLEPEDFAVYYCQQSVENPFTFGQGTKLEIK
binds	–	–	抗人4-1BB人源化抗体3A11 (antibody, V domains shown) VH: EVQLVESGGGLVKPGGSLRLSCAASGFIFNTNAMNWVRQAPGKGLEWIARIRSKINNYATYYADSVKDRFTISRDDSKNTLYLQMNSLKTEDTAVYYCNWDEAYWGQGTLVTVSS VL: DIQMTQSPSSLSASVGDRVTITCKASDHINNWLAWYQQKPGKAPKLLIFGATSLETGVPSRFSGSASGNDYTLTISSLQPEDFATYYCQQYWSIPYTFGQGTKLEIK
